Values from PubChem BioAssay AID1259274 (Sanger Institute, 2017).

- Screen: 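siRNA screen of kinases for partners that act in synergy with targeted drugs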 (primary screen)
- System: human RKO colorectal cancer cells
- Reagents: siRNA pool against human genes
- Treatment: anchor drugs BYL719 at 1 µM, cetuximab at 5 µg/ml or trametinib at 10 nM; DMSO vehicle as the no-drug arm
- Detection: 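Viability as fraction of non-targeting pool 2 control, averaged across replicates, robust z-score for single knock-down, and a combination synergy score per anchor drug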
- Scale: viability z-score, siRNA alone: higher = more viable cells; low values mean essential gene; viability, siRNA alone, vehicle: higher = more viable cells
- Units: viability, siRNA alone, vehicle in fraction of control
- Active means: 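a single knock-down scoring under -3 on the robust z-score, meaning fewer cells, counts as essential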
- Meaning of the calls: active = essential when knocked down alone; inactive = no change alone
In all, the deposit lists 794 reagents; below is a random part of them. 11 of all reagents (1.4%) count as active. 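Calls rest on knock-down without drug only; synergy scores with anchor drugs were not used for the essential call.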 Viability is capped at 1. Further read-outs or replicates are left out here. Not given: the amount of reagent, the time to read-out.

IRAK2 scored viability z-score, siRNA alone -0.582; viability, siRNA alone, vehicle 0.848; inactive.
With knock-down of NEK7, the screen gave viability z-score, siRNA alone 1.19; viability, siRNA alone, vehicle 1; inactive.
Knock-down of RPS6KA4 gave: viability z-score, siRNA alone -1.35; viability, siRNA alone, vehicle 0.783; inactive.
For NLK, the entry reads viability z-score, siRNA alone -0.925; viability, siRNA alone, vehicle 0.819; inactive.
Knock-down of IDH2 came out at: viability z-score, siRNA alone 1.19; viability, siRNA alone, vehicle 1; inactive.
With knock-down of BRSK2 the results were viability z-score, siRNA alone 1.19; viability, siRNA alone, vehicle 1; inactive.
Knock-down of STK39 came out at: viability z-score, siRNA alone -0.581; viability, siRNA alone, vehicle 0.848; inactive.

Not a retest: entries from further up.
RPS6KA4 → viability z-score, siRNA alone = -1.35; viability, siRNA alone, vehicle = 0.783; outcome = inactive
NLK → viability z-score, siRNA alone = -0.925; viability, siRNA alone, vehicle = 0.819; outcome = inactive

The list goes on:
With knock-down of CASK, the screen gave viability z-score, siRNA alone -0.123; viability, siRNA alone, vehicle 0.887; inactive.
With knock-down of HUNK the results were viability z-score, siRNA alone -0.639; viability, siRNA alone, vehicle 0.843; inactive.
With knock-down of MAP3K1, the screen gave viability z-score, siRNA alone 0.687; viability, siRNA alone, vehicle 0.957; inactive.
Against DLG3, the entry reads viability z-score, siRNA alone -0.78; viability, siRNA alone, vehicle 0.831; inactive.
Knock-down of MAP3K3 resulted in: viability z-score, siRNA alone -0.425; viability, siRNA alone, vehicle 0.862; inactive.
Depletion of ADCK5 gave: viability z-score, siRNA alone 0.276; viability, siRNA alone, vehicle 0.922; inactive.
For AK2, the entry reads viability z-score, siRNA alone -0.206; viability, siRNA alone, vehicle 0.88; inactive.
Silencing of RELA gave: viability z-score, siRNA alone -0.473; viability, siRNA alone, vehicle 0.857; inactive.
NEK2 showed viability z-score, siRNA alone 0.44; viability, siRNA alone, vehicle 0.936; inactive.
After knock-down of PKM the results were viability z-score, siRNA alone 0.524; viability, siRNA alone, vehicle 0.943; inactive.
After knock-down of STK26 the results were viability z-score, siRNA alone 0.455; viability, siRNA alone, vehicle 0.937; inactive.
NME2 scored viability z-score, siRNA alone 0.0919; viability, siRNA alone, vehicle 0.906; inactive.
